Taken from: PubChem BioAssay AID1224828 (NIAID, 2016)
The whole screen tested about 17,000 reagents; this is an unselected part. In the full data, 762 (4.5%) are marked active. 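Active calls include both raised and lowered p65 entry, mostly lowered; wells with fewer than 50 cells lack a z-score.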 Raw values vary from plate to plate and are shown uncorrected. A number with no mark means an inactive call. The numbers tell different reagents against one gene apart. Some reagents were tested in more than one well and are listed for each.

Assay: 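Knock-downs that increase or decrease LPS-induced p65 nuclear translocation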 (primary screen)
System: mouse RAW264.7 G9 macrophage reporter cells (GFP-p65, Tnf promoter-mCherry)
Reagent: siRNA pool against mouse genes, 100 nM
Duration: 2 days siRNA transfection, then 40 min LPS before fixation
Challenge: LPS (Salmonella minnesota R595) at 10 ng/ml
Read-out: 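Microscopy ratio of nuclear to perinuclear-ring GFP-p65 signal, scaled to the plate median; gene score is the average of two replicate robust z-scores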
Scale: p65 translocation robust z-score: higher = more nuclear NF-kappaB p65 after LPS than the plate median; nuclear/cytoplasmic p65 ratio: higher = more nuclear NF-kappaB p65
Rule for the call: 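Called active when z exceeds 3.3 or falls under -1.56 (median of Tlr4 controls), giving activity score of at least 50; no calls for control wells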
Meaning of the calls: active = hit (p65 shift raised or lowered); inactive = no clear change

With Sde2, what was measured?
p65 translocation robust z-score: -1.01; nuclear/cytoplasmic p65 ratio, rep 1: 1.45; nuclear/cytoplasmic p65 ratio, rep 2: 1.64; low cell count flag: enough cells to score

For Mas1, what was measured?
p65 translocation robust z-score: 0.31; nuclear/cytoplasmic p65 ratio, rep 1: 1.53; nuclear/cytoplasmic p65 ratio, rep 2: 1.65; low cell count flag: enough cells to score

With Atp1a1, what was measured?
p65 translocation robust z-score: 2.25; nuclear/cytoplasmic p65 ratio, rep 1: 1.91; nuclear/cytoplasmic p65 ratio, rep 2: 1.85; low cell count flag: enough cells to score

With Kif21b, what does the deposit list?
p65 translocation robust z-score: 0.23; nuclear/cytoplasmic p65 ratio, rep 1: 1.55; nuclear/cytoplasmic p65 ratio, rep 2: 1.37; low cell count flag: enough cells to score

With Hk3, what does the deposit list?
nuclear/cytoplasmic p65 ratio, rep 1: 2.4; nuclear/cytoplasmic p65 ratio, rep 2: 1.5; low cell count flag: fewer than 50 cells per well; well left out of scoring

For Fam241a, what does the deposit list?
p65 translocation robust z-score: 0.26; nuclear/cytoplasmic p65 ratio, rep 1: 1.4; nuclear/cytoplasmic p65 ratio, rep 2: 1.61; low cell count flag: enough cells to score

Which result is listed for Mug1?
p65 translocation robust z-score: -0.4; nuclear/cytoplasmic p65 ratio, rep 1: 1.73; nuclear/cytoplasmic p65 ratio, rep 2: 1.39; low cell count flag: enough cells to score

For 2210408O09Rik (retired record), what does the deposit list?
p65 translocation robust z-score: 0.61; nuclear/cytoplasmic p65 ratio, rep 1: 1.44; nuclear/cytoplasmic p65 ratio, rep 2: 1.34; low cell count flag: enough cells to score

With Nit2, what was measured?
p65 translocation robust z-score: -0.24; nuclear/cytoplasmic p65 ratio, rep 1: 1.38; nuclear/cytoplasmic p65 ratio, rep 2: 1.38; low cell count flag: enough cells to score

For Slc12a9, what does the deposit list?
p65 translocation robust z-score: -1.22; nuclear/cytoplasmic p65 ratio, rep 1: 1.22; nuclear/cytoplasmic p65 ratio, rep 2: 1.14; low cell count flag: enough cells to score

For Slc12a9, what was measured?
nuclear/cytoplasmic p65 ratio, rep 1: 1.2; nuclear/cytoplasmic p65 ratio, rep 2: 0.9; low cell count flag: fewer than 50 cells per well; well left out of scoring

With Antkmt, what was measured?
p65 translocation robust z-score: 0.51; nuclear/cytoplasmic p65 ratio, rep 1: 1.68; nuclear/cytoplasmic p65 ratio, rep 2: 1.89; low cell count flag: enough cells to score

What is on record for Kirrel1 #1?
p65 translocation robust z-score: -0.39; nuclear/cytoplasmic p65 ratio, rep 1: 1.57; nuclear/cytoplasmic p65 ratio, rep 2: 1.32; low cell count flag: enough cells to score

With Kirrel1 #2, how do the results read?
p65 translocation robust z-score: 0.51; nuclear/cytoplasmic p65 ratio, rep 1: 1.5; nuclear/cytoplasmic p65 ratio, rep 2: 1.63; low cell count flag: enough cells to score

Targets listed so far whose gene name begins with S or s (3):
Sde2 | p65 translocation robust z-score: -1.01; nuclear/cytoplasmic p65 ratio, rep 1: 1.45; nuclear/cytoplasmic p65 ratio, rep 2: 1.64; low cell count flag: enough cells to score
Slc12a9 | p65 translocation robust z-score: -1.22; nuclear/cytoplasmic p65 ratio, rep 1: 1.22; nuclear/cytoplasmic p65 ratio, rep 2: 1.14; low cell count flag: enough cells to score
Slc12a9 | nuclear/cytoplasmic p65 ratio, rep 1: 1.2; nuclear/cytoplasmic p65 ratio, rep 2: 0.9; low cell count flag: fewer than 50 cells per well; well left out of scoring

Continued.
How did the screen score Or13d1?
p65 translocation robust z-score: 0.86; nuclear/cytoplasmic p65 ratio, rep 1: 1.71; nuclear/cytoplasmic p65 ratio, rep 2: 1.56; low cell count flag: enough cells to score

With Zfp128, how do the results read?
p65 translocation robust z-score: 0.45; nuclear/cytoplasmic p65 ratio, rep 1: 1.46; nuclear/cytoplasmic p65 ratio, rep 2: 1.31; low cell count flag: enough cells to score

With Pde5a, what was measured?
p65 translocation robust z-score: -0.64; nuclear/cytoplasmic p65 ratio, rep 1: 1.38; nuclear/cytoplasmic p65 ratio, rep 2: 1.31; low cell count flag: enough cells to score

How did the screen score Cyp26b1?
p65 translocation robust z-score: 0.53; nuclear/cytoplasmic p65 ratio, rep 1: 1.5; nuclear/cytoplasmic p65 ratio, rep 2: 2.04; low cell count flag: enough cells to score

What did the screen give for Chordc1?
p65 translocation robust z-score: -0.73; nuclear/cytoplasmic p65 ratio, rep 1: 1.58; nuclear/cytoplasmic p65 ratio, rep 2: 1.56; low cell count flag: enough cells to score

What is on record for Rorb?
p65 translocation robust z-score: -0.68; nuclear/cytoplasmic p65 ratio, rep 1: 1.47; nuclear/cytoplasmic p65 ratio, rep 2: 1.37; low cell count flag: enough cells to score

What did the screen give for Arhgef28?
p65 translocation robust z-score: 2.2; nuclear/cytoplasmic p65 ratio, rep 1: 1.52; nuclear/cytoplasmic p65 ratio, rep 2: 2.12; low cell count flag: enough cells to score
